Assay [1] deals with T1, V5-tagged LAGE3 (stably overexpressed in human podocytes) (human) (UniProt Q14657).
T1 sequence: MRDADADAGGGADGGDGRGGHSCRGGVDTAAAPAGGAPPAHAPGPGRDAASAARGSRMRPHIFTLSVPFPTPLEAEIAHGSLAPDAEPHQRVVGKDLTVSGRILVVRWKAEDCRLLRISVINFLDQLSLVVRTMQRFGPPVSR
Briefly: affinity purification with mass spectrometry; immunoprecipitation of 2HA-GON7 or V5-LAGE3 from human podocyte cell lines stably expressing them; control IP versus IP HA or IP V5, three biological replicates.

In assay [2] the target is T2, 2HA-tagged GON7 (stably overexpressed in human podocytes) (human) (UniProt Q9BXV9).
T2 sequence: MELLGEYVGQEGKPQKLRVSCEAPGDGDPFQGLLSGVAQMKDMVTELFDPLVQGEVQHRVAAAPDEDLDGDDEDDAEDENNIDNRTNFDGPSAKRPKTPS
The description is as above.

Our source for the binding values is PMC6722078, “Defects in t^6A tRNA modification due to GON7 and YRDC mutations lead to Galloway-Mowat syndrome” (Nature Communications, 2019).

These are yes or no findings as the source states them, for the method shown. Binding seen in cells or lysates may run through a third protein. These calls come from enrichment with a bait or labelling near it, and not all partners need be listed. Tags and fused reporters may be left off the sequences shown.

Turning to “TPRKB (endogenous, human podocytes) (from UniProt Q9Y3C4 1-175)”, the binding result in assay [1] and in assay [2] was “binds” throughout.

B1: TP53RK (endogenous, human podocytes) (protein, UniProt Q96S44 1-253)
chain: MAAARATTPADGEEPAPEAEALAAARERSSRFLSGLELVKQGAEARVFRGRFQGRAAVIKHRFPKGYRHPALEARLGRRRTVQEARALLRCRRAGISAPVVFFVDYASNCLYMEEIEGSVTVRDYIQSTMETEKTPQGLSNLAKTIGQVLARMHDEDLIHGDLTTSNMLLKPPLEQLNIVLIDFGLSFISALPEDKGVDLYVLEKAFLSTHPNTETVFEAFLKSYSTSSKKARPVLKKLDEVRLRGRKRSMVG
For the molecule B1, the binding entry in assay [2] is reported as “binds”.
